{"source": "patent US12503455B2", "about": "“Nucleic acid-binding photoprobes and uses thereof” (Arrakis Therapeutics, Inc., priority 2017, dated 2025)", "system": "Aptamer 21", "test": "Next generation sequencing of ARK-547 cross-linked Aptamer 21 (RT pausing, mutation rate)", "type": "binding", "method": "A 9.5 μL sample of folded RNA (2.6 μM) in buffer (20 mM TrisHCl pH 8, 100 mM KCl, 3 mM MgCl2) was added to a 0.5 μL aliquot of 1 mM ARK-547 in DMSO. The reaction was incubated for 10 min at 37° C., irradiated with long wave UV light (˜365 nm) for 30 min in a UV crosslinker (Fisher Scientific), and then kept on ice.\nThe samples of cross-linked RNA were diluted to a final volume of 20 μL and final reaction conditions of 1×T4 RNA ligase buffer (New England Biolabs), 5 U/μL T4 RNA ligase 2, truncated KQ (New England Biolabs), 16.5% PEG-8000, and 0.5 μM universal miRNA cloning linker (New England Biolabs). The reaction was incubated in a thermal cycler for 2.5 h cycling between 5 min at 16° C. and 3 min at 25° C. The RNA was then purified using Agencourt AMPure XP beads (Beckman Coulter) using the standard protocol from the manufacturer. The RNA was eluted with 20 μL of nuclease-free water.\nA 10 μL aliquot of the eluted RNA sample was mixed with a 1 μL aliquot of 2 μM PEARLv2_RT primer, heated to 65° C. for 5 min, and then cooled on ice. […]\nTo remove excess primer, the sample was mixed with 4.5 μL of ExoSAP-IT, incubated at 37° C. for 15 min, and then quenched with 1 μL of 0.5 M EDTA pH 8. […] The concentration was determined by absorbance at 260 nm. […]\nThe concentrations of different PCR products were measured using the Denovix dsDNA fluorescence quantitation kit (Denovix) and multiplexed at equal concentrations with a 20% PhiX spike-in. Sequencing was performed on an Illumina MiSeq with 150 bp paired-end reads using the standard manufacturer protocol.\nSites of interaction between probe and transcripts were defined by reverse transcriptase (RT) stalling sites. RT stalling sites were defined based upon the mapped position of the 5′ end of a trimmed read. For short defined transcripts such as Aptamer 21, high-confidence RT stall sites were defined from reads with 3′ ends mapping to the precise transcript end. […]", "note": "Where “and” joins values, the source holds several entries; their conditions need not be identical. Equal values may be shown once.", "data": [{"smiles": "COC(=O)C1=C(COCc2cn(CCOCCOCCNC(=O)CCC3(C)N=N3)nn2)NC(c2ccncc2)=NC1c1ccc(F)cc1Cl", "note": "(stereo not drawn) [ARK-547]", "values": [{"measurement": "position of maximal reverse transcriptase (RT) pausing", "value": 59, "unit": "nt"}, {"measurement": "MaP signal positions in sequencing of cross-linked Aptamer 21", "setting": "nucleotide position", "value": "43 and 60"}, {"measurement": "selective drop-off position in sequencing of cross-linked Aptamer 21", "setting": "nucleotide position", "value": 60}]}]}
